“Also recorded” adds a separate entry of the source. For at least one compound, name, drawing or mass did not settle the structure.
Assays:
mouse RGCs [1] = assay: RGC neurite growth in purified primary mouse RGC culture (high-content screening); assay type: cell-based; conditions: for RGC neurite growth: Example 4, clinical protein kinase inhibitors, purified primary mouse RGC culture
mouse RGCs [2] = assay: RGC survival in purified primary mouse RGC culture (high-content screening, Calcein AM/Hoechst/Ethidium Homodimer-1); assay type: cell-based
mouse RGCs [3] = assay: Excitotoxicity (glutamate, KA, NMDA, AMPA) in purified mouse RGCs in vitro; assay type: cell-based; conditions: 1 μM sunitinib 16 hours prior to 5-hour exposure to 100, 250, 500 μM agonist
Experimental: Neuronal toxicity of excitatory amino acid glutamate and its analogue NMDA is implicated in a number of neurodegenerative conditions that involve RGC, such as glaucoma, optic neuropathies of trauma and other origins, and that affect other CNS structures, such as Alzheimer's disease, Parkinson's disease, Huntington's disease, stroke, and […] (ALS). […] RGC viability was measured and the percentage of RGC loss due to the excitotoxicity was calculated.

mouse RGCs [4] = assay type: in vivo
Excerpt: . Mouse optic nerve crush is a well-established animal model in mimicking the pathological conditions in which the primary injury sites are focal to RGC axons such as in glaucoma, AION, traumatic optic neuropathy, and multiple sclerosis. Specific RGC loss following nerve crush, which largely spares displaced amacrine cells in GCL, is thought to result from incomplete understood mechanism that implicates the blockage of retrograde axonal transport and subsequently impaired neurotrophin signaling, and excitotoxicity etc. In addition, mouse optic nerve crush has been successfully employed as an experimental system to identify the genetic nature controlling RGC susceptibility to axon injury.
During the procedure, the optic nerve was carefully exposed through a post-orbital approach, and crushed with a self-closing forceps for three seconds. […] Since RGCs populate ˜60% cells in rodent GCL, the estimated surviving RGC is ˜57.3%. […]. […]

[5] = system: Mouse retinal ganglion cells (RGCs); assay: Live-dead assay of cultured mouse RGCs (Cellomics VTI HCS reader), live cell count; conditions: approximately 2 days culture, various concentrations, FIG. 4
[6] = forskolin together with sunitinib

C=C[C@@]1(C)CC(=O)[C@]2(O)[C@@]3(C)[C@@H](O)CCC(C)(C)[C@@H]3[C@H](O)[C@H](OC(C)=O)[C@@]2(C)O1 [forskolin]
effect of forskolin in the media on sunitinib's neurite growth activity (mouse RGCs [1]; [6]): strongly enhancing neurite growth | effect of forskolin in the media on sunitinib's RGC survival activity (mouse RGCs [2]; [6]): moderately help sunitinib improving RGC survival

CCN(CC)CCNC(=O)c1c(C)[nH]c(/C=C2\C(=O)Nc3ccc(F)cc32)c1C [sunitinib, N-[2-(diethylamino)ethyl]-5-[(Z)-(5-fluoro-1,2-dihydro-2-oxo-3H-indol-3-ylidine)methyl]-2,4-dimethyl-1H-pyrrole-3-carboxamide]
protection against excitotoxicity of glutamate and its analogues (mouse RGCs [3]): invariably antagonized the detrimental effect of glutamate and its analogues; also recorded: protects against NMDA excitotoxicity | neuroprotective effect to RGCs at higher dosages (mouse RGCs [4]; dosages higher than 5 mg/kg/day (10, 15, 20, 40 mg/kg/day)): less or no neuroprotective effect | RGC loss secondary to optic nerve injury (mouse RGCs [4]; intravitreal injection of sunitinib): capable of reducing RGC loss | RGC survival (live cell count) [5]: significantly increased RGC survival

C[C@]12O[C@H](C[C@]1(O)CO)n1c3ccccc3c3c4c(c5c6ccccc6n2c5c31)CNC4=O [Lestaurtinib]
RGC neurite growth (mouse RGCs [1]): inhibitory to RGC neurite growth

Cc1nc(Nc2ncc(C(=O)Nc3c(C)cccc3Cl)s2)cc(N2CCN(CCO)CC2)n1 [Dasatinib]
RGC neurite growth (mouse RGCs [1]): suppress both RGC survival and neurite growth | pro-surviving activity on RGCs (mouse RGCs [2]; Example 4, clinical protein kinase inhibitors, purified primary mouse RGC culture): suppress both RGC survival and neurite growth

— patent publication US9655882B2, “Compositions and methods for treatment of neurodegenerative disease” (THE JOHNS HOPKINS UNIVERSITY, priority 2008, dated 2017)
